The other results are listed elsewhere or left out.
Columns and labels:
Experiment in all cases: log2 fold change, soluble protein after heating vs DMSO (PISA); higher = thermal stabilisation; K562 cells, 10 uM, 30 min; active = over 0.2 and 3.5 SD of the protein, either way, in both replicates (recomputed)
erlotinib = compound: C#Cc1cccc(Nc2ncnc3cc(OCCOC)c(OCCOC)cc23)c1 [erlotinib]
Method in brief: (§1)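 K562 cells at 2×10^6 cells/mL were given 10 μM compound for 30 min. Aliquots then went through 3 min of heating across 48°C-58°C, were pooled, and were extracted in PBS with 0.5% NP-40 at 4°C, and the supernatant after 21,000xg for 90 min was quantified by TMTpro 16plex LC-MS/MS with channel sums equalised. Thermal stability relative to control samples, from duplicates, is given as log2 fold change.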

The chains behind the UniProt entries cited, without tags or fusion partners. Where a name states a change or a piece, a line headed by the entry shows the natural chain unless it says otherwise.
UniProt Q15631: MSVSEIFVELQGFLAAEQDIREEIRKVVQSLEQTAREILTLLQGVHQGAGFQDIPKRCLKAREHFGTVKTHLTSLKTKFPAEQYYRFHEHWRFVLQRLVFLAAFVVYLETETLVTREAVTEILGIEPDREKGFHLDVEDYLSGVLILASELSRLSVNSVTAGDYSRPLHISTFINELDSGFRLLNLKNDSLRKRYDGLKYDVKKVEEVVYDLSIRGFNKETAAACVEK
UniProt Q9H832: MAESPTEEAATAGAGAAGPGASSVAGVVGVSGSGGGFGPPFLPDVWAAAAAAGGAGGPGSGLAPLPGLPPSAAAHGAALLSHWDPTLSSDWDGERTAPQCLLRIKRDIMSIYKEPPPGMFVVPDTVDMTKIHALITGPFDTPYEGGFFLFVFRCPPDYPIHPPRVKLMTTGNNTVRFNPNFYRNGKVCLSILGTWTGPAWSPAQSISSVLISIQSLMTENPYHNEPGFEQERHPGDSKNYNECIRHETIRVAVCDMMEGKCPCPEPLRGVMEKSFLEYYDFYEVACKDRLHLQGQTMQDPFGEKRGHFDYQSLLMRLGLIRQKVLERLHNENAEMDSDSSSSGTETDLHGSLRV
UniProt Q9NUQ3: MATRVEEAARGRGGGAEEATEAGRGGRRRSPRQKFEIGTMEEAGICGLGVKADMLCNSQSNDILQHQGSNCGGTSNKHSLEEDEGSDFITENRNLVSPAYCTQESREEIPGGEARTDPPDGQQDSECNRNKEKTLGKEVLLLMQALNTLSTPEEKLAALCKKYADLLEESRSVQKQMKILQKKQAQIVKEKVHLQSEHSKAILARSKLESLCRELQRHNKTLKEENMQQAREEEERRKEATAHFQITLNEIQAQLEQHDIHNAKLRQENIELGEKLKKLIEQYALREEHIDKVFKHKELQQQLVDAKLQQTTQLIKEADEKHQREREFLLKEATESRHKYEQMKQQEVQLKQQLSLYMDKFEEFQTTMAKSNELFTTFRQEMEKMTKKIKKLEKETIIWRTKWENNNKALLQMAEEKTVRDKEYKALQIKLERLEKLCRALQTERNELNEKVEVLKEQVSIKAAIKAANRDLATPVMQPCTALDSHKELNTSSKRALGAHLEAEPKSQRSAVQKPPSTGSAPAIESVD
UniProt A6NHL2: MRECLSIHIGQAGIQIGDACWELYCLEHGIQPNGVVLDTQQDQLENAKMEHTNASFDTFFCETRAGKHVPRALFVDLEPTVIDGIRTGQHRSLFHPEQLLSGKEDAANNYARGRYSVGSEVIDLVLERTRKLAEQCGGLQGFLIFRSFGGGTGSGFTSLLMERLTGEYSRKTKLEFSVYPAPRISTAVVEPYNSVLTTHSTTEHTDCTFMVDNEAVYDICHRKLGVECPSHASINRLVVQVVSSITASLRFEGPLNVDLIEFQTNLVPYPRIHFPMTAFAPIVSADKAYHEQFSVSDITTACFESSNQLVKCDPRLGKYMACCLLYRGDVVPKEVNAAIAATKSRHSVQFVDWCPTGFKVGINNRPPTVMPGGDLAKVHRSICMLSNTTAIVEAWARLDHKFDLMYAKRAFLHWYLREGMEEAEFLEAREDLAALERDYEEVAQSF
UniProt Q5BVD1: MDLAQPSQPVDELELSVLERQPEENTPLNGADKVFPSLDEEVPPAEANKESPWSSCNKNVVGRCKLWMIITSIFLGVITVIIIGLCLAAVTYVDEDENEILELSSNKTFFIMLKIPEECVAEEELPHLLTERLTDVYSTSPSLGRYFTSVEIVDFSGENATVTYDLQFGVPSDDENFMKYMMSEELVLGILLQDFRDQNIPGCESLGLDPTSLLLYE
UniProt O60637: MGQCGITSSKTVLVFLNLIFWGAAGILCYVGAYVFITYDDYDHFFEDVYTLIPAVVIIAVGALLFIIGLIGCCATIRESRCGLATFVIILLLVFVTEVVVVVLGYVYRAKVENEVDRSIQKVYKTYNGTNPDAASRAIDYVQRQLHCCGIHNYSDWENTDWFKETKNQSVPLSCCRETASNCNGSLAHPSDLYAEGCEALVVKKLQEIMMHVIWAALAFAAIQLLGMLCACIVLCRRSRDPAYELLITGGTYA
UniProt Q6DKK2: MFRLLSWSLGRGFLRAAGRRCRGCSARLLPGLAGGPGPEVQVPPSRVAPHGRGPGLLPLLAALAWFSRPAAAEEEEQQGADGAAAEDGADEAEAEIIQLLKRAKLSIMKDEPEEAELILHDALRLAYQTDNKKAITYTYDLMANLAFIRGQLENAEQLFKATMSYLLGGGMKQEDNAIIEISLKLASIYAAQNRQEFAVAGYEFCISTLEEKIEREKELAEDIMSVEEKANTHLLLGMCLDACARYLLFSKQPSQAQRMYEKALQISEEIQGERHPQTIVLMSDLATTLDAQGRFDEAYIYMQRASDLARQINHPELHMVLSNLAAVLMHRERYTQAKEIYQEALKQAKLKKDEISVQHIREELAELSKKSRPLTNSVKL
UniProt A2RUC4: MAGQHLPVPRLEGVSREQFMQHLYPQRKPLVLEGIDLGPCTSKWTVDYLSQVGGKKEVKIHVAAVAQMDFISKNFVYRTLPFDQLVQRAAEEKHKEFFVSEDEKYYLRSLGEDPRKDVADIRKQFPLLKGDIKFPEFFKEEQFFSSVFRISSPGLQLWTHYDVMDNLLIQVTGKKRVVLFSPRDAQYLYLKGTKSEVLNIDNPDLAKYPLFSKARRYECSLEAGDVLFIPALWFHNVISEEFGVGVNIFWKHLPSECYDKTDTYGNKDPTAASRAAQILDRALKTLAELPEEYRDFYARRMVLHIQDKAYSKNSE
UniProt Q96AE7: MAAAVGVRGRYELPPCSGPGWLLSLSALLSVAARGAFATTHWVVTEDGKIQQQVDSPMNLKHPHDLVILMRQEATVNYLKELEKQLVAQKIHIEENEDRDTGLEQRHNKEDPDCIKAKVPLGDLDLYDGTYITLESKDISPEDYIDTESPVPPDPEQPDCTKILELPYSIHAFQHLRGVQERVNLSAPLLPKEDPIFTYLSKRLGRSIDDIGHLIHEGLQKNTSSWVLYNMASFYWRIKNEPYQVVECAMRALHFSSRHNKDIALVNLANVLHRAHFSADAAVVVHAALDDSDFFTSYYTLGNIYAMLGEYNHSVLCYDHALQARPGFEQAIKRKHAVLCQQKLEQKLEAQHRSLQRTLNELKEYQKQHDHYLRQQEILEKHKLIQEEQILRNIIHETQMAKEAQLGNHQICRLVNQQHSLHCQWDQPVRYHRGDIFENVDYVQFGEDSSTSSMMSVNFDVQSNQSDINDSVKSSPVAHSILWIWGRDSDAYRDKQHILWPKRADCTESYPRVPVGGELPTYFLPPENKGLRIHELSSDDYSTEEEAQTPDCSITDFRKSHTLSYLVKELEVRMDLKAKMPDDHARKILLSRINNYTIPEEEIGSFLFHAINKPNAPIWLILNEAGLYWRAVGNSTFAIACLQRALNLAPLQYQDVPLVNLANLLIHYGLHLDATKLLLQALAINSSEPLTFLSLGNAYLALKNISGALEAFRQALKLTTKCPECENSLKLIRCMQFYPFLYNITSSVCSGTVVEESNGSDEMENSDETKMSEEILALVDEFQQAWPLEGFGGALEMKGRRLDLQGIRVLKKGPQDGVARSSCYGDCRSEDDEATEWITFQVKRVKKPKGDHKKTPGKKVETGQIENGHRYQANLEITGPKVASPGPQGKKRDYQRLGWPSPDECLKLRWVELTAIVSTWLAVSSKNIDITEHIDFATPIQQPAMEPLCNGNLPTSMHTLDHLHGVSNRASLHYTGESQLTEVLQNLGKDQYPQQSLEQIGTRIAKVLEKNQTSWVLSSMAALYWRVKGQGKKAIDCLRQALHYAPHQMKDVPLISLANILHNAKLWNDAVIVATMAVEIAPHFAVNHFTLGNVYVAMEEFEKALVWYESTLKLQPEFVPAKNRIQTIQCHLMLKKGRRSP
UniProt Q9H0U9: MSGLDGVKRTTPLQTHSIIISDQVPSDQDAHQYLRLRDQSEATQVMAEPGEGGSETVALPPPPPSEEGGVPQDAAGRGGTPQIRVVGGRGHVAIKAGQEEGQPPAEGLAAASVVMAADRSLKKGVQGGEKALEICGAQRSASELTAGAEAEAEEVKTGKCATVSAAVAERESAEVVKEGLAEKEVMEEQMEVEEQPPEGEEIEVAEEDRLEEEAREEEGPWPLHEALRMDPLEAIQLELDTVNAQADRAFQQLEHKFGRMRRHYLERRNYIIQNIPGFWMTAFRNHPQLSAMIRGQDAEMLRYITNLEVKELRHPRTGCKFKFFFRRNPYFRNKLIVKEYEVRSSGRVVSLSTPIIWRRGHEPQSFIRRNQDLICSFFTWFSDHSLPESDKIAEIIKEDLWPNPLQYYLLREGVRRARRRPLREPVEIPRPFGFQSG
UniProt Q9NNW7, whole entry, looked up: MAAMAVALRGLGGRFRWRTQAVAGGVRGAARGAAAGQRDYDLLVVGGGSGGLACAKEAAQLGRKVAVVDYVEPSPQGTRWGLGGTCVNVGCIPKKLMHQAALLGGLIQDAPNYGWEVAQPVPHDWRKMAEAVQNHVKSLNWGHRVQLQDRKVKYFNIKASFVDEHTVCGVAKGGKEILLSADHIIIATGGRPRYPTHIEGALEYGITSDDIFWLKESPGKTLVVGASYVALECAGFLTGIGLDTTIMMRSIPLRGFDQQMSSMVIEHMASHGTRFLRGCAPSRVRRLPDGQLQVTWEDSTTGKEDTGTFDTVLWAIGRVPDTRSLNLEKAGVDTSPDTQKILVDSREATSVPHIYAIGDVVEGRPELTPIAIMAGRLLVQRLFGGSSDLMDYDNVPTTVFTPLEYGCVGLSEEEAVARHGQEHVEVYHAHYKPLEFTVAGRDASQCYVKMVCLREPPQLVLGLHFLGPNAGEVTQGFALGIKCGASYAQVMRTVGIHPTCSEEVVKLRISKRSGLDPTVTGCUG
UniProt Q9BRA2: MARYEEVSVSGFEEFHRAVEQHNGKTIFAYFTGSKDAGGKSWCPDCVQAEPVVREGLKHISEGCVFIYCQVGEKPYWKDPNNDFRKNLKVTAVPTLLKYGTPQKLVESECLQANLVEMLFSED
UniProt Q8N2K1: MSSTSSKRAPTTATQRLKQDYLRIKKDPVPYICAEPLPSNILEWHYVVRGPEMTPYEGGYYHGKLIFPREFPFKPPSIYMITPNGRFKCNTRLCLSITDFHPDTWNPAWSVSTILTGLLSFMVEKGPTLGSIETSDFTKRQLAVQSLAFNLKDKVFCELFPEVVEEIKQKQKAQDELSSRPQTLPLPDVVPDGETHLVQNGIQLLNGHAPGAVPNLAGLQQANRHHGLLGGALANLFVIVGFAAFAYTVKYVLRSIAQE
UniProt P61081: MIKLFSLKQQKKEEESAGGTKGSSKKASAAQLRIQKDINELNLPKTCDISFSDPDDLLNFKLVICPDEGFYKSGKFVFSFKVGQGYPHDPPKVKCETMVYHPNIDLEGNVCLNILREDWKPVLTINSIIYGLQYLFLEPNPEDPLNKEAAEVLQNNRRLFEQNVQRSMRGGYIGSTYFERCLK
UniProt Q9UNY4: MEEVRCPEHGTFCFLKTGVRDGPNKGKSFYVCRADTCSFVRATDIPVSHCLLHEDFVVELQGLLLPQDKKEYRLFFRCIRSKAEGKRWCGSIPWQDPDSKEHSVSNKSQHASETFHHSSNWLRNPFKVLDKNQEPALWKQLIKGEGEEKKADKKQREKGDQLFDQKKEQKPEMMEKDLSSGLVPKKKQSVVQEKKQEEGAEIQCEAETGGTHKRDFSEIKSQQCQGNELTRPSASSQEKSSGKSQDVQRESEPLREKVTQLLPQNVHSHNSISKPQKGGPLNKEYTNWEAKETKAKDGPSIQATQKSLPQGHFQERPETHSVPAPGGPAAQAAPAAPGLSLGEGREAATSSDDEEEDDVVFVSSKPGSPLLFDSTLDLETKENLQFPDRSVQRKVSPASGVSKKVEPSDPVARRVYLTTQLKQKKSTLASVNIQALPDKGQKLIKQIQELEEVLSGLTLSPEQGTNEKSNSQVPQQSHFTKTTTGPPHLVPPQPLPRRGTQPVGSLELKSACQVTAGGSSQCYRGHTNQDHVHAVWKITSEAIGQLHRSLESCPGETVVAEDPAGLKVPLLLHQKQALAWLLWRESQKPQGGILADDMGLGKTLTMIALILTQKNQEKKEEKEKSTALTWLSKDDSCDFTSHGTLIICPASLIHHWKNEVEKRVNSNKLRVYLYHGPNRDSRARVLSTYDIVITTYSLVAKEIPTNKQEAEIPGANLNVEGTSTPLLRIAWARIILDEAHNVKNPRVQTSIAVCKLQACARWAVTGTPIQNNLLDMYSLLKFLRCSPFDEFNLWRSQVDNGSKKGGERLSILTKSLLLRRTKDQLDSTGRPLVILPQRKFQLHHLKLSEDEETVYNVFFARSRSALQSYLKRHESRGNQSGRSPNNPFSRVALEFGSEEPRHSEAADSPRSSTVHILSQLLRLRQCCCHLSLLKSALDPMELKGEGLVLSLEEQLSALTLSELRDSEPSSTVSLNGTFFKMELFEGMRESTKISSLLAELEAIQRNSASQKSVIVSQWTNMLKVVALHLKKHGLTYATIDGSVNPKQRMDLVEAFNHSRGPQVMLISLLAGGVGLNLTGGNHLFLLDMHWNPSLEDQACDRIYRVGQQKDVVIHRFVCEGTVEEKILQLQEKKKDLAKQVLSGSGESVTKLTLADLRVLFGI

[1] = compound: C/C(=N\NC(=O)C1=CC(=CC=C1)S(=O)(=O)N2CCOCC2)/C3=C(C=CC(=C3)Cl)O
Method in brief: as §1

[2] = compound: C1=CC(=C(C=C1Cl)C2=NC3=NC=CN=C3C(=N2)NC4=CC=NC=C4)F
Method in brief: as §1

[3] = compound: C1=CC(=CC=C1C2=NC3=C(N2)C=C(C=C3)C(=O)N)OC4=CC=C(C=C4)Cl
Method in brief: as §1

[4] = compound: C1=CC2=C(C=CC(=C2)/C=C\3/C(=O)NC(=NCC4=CC=CS4)S3)N=C1
Method in brief: as §1

[5] = compound: C1=CC2=NC=CN=C2C=C1/C=C/3\C(=O)NC(=O)S3
Method in brief: as §1

[6] = compound: C1=CC=C(C=C1)C2=NC(=C(N2)C3=CC=NC=C3)C4=CC(=C(C=C4)Cl)O
Method in brief: as §1

[7] = compound: C1=CC=C2C(=C1)C3=NNC4=CC=CC(=C43)C2=O
Method in brief: as §1

[8] = compound: C1CCN(C1)C(=O)NC2=CC=CC(=C2)NC3=NC=C(C(=N3)NCCC4=CN=CN4)Br
Method in brief: as §1

[9] = compound: C1CN(CCC1(CC2=CC=C(C=C2)Cl)N)C3=NC=NC4=C3C=CN4
Method in brief: as §1

Row | Target | log2 fold change (erlotinib) | log2 fold change [1] | log2 fold change [2] | log2 fold change [3] | log2 fold change [4] | log2 fold change [5] | log2 fold change [6] | log2 fold change [7] | log2 fold change [8] | log2 fold change [9]
1 | TUBGCP3 (UniProt Q96CW5) | inactive: -0.025 | inactive: 0.037 | inactive: -0.15 | inactive: 0.094 | inactive: 0.028 | inactive: -0.031 | inactive: -0.068 | inactive: 0.106 | inactive: -0.146 | inactive: -0.102
2 | TTC27 (UniProt Q6P3X3) | inactive: 0.038 | inactive: 0.126 | inactive: -0.13 | inactive: -0.053 | inactive: -0.02 | inactive: -0.026 | inactive: 0.112 | inactive: -0.01 | inactive: -0.011 | inactive: -0.099
3 | TSN (UniProt Q15631) | inactive: -0.004 | inactive: -0.009 | inactive: 0.042 | inactive: 0.021 | inactive: 0.03 | inactive: 0.01 | inactive: 0.074 | inactive: 0.031 | inactive: -0.057 | inactive: 0.052
4 | UBE2Z (UniProt Q9H832) | inactive: 0.046 | inactive: 0.079 | inactive: 0.048 | inactive: 0.006 | inactive: 0.026 | inactive: 0.022 | inactive: -0.097 | inactive: -0.046 | inactive: 0 | inactive: 0.043
5 | TXNDC15 (UniProt Q96J42) | inactive: -0.085 | inactive: 0.031 | inactive: 0.015 | inactive: -0.007 | inactive: -0.125 | inactive: 0.054 | inactive: -0.055 | inactive: -0.114 | inactive: 0.128 | inactive: 0.049
6 | UBE2G1 (UniProt P62253) | inactive: 0.031 | inactive: 0.015 | inactive: 0.06 | inactive: -0.003 | inactive: -0.005 | inactive: 0.033 | inactive: -0.046 | inactive: 0.023 | inactive: 0.015 | inactive: 0.017
7 | TTI1 (UniProt O43156) | inactive: -0.078 | inactive: 0.115 | inactive: -0.015 | inactive: -0.045 | inactive: 0.057 | inactive: 0.028 | inactive: 0.029 | inactive: 0.008 | inactive: 0.019 | inactive: 0.028
8 | TXLNG (UniProt Q9NUQ3) | inactive: -0.005 | inactive: -0.01 | inactive: 0.045 | inactive: -0.003 | inactive: 0.029 | inactive: 0.008 | inactive: -0.008 | inactive: 0 | inactive: -0.001 | inactive: 0.021
9 | UBE2O (UniProt Q9C0C9) | inactive: 0.123 | inactive: -0.05 | inactive: 0.049 | inactive: -0.009 | inactive: 0.077 | inactive: 0.01 | inactive: 0.06 | inactive: 0.017 | inactive: -0.033 | inactive: 0.041
10 | UBE2G2 (UniProt P60604) | inactive: -0.148 | inactive: 0.168 |  | inactive: 0.173 | inactive: -0.105 | inactive: 0.038 | inactive: 0.205 | inactive: 0.099 | inactive: -0.111 | inactive: -0.208
11 | U2AF2 (UniProt P26368) | inactive: 0.012 | inactive: 0.045 | inactive: -0.013 | inactive: 0.029 | inactive: -0.045 | inactive: -0.004 | inactive: 0.012 | inactive: -0.048 | inactive: -0.026 | inactive: -0.074
12 | TUBAL3 (UniProt A6NHL2) | inactive: 0.092 | inactive: 0.096 | inactive: 0.099 | inactive: 0.018 | inactive: 0.048 | inactive: 0.004 | inactive: 0.031 | inactive: -0.034 | inactive: -0.046 | inactive: 0.145
13 | UBE2D1 (UniProt P51668) | inactive: 0.098 | inactive: 0.071 |  | inactive: 0.068 | inactive: 0.057 | inactive: 0.023 | inactive: 0.01 | inactive: -0.096 | inactive: 0.022 | inactive: -0.162
14 | TTMP isoform 3 (UniProt Q5BVD1) | inactive: 0.266 | inactive: -0.252 | inactive: 0.022 | inactive: -0.129 | inactive: 0.253 | inactive: -0.017 | inactive: 0.021 | inactive: 0.043 | inactive: -0.082 | inactive: 0.421
15 | TSPAN31 (UniProt Q12999) | inactive: -0.055 | inactive: -0.095 | inactive: 0.11 | inactive: 0.084 | inactive: 0.04 |  |  | inactive: -0.049 | inactive: 0.03 | inactive: 0.027
16 | TUBB4A (UniProt M0QYM7) | inactive: -0.021 | inactive: -0.21 | inactive: -0.124 | inactive: -0.108 | inactive: 0.345 | inactive: 0.048 |  | inactive: -0.134 | inactive: 0.424 | inactive: -0.241
17 | TSPAN3 (UniProt O60637) | inactive: 0.042 | inactive: -0.006 |  | inactive: 0.093 | inactive: -0.011 | inactive: 0.043 | inactive: -0.172 | inactive: 0.03 | inactive: 0.029 | inactive: 0.013

Whole records, quoted from the list. Order of values: log2 fold change (erlotinib) | log2 fold change [1] | log2 fold change [2] | log2 fold change [3] | log2 fold change [4] | log2 fold change [5] | log2 fold change [6] | log2 fold change [7] | log2 fold change [8] | log2 fold change [9]
TXLNG (UniProt Q9NUQ3) in the list: inactive: -0.005 | inactive: -0.01 | inactive: 0.045 | inactive: -0.003 | inactive: 0.029 | inactive: 0.008 | inactive: -0.008 | inactive: 0 | inactive: -0.001 | inactive: 0.021
UBE2O (UniProt Q9C0C9) in the list: inactive: 0.123 | inactive: -0.05 | inactive: 0.049 | inactive: -0.009 | inactive: 0.077 | inactive: 0.01 | inactive: 0.06 | inactive: 0.017 | inactive: -0.033 | inactive: 0.041

(list continues)

Row | Target | log2 fold change (erlotinib) | log2 fold change [1] | log2 fold change [2] | log2 fold change [3] | log2 fold change [4] | log2 fold change [5] | log2 fold change [6] | log2 fold change [7] | log2 fold change [8] | log2 fold change [9]
18 | TUBGCP4 (UniProt Q9UGJ1) | inactive: 0.114 | inactive: -0.119 |  | inactive: -0.085 | inactive: -0.04 | inactive: 0.139 | inactive: 0.07 | inactive: 0.058 | inactive: -0.065 | inactive: -0.067
19 | TTC19 (UniProt Q6DKK2) | inactive: 0.025 | inactive: 0.018 | inactive: 0.016 | inactive: -0.004 | inactive: 0.036 | inactive: -0.001 | inactive: 0.021 | inactive: -0.024 | inactive: 0.011 | inactive: -0.004
20 | TUBA3C (UniProt P0DPH7) | inactive: 0.101 | inactive: -0.032 | inactive: 0.072 | inactive: 0.079 | inactive: -0.002 | inactive: 0.011 | inactive: 0.004 | inactive: -0.026 | inactive: 0.071 | inactive: 0.059
21 | TYW5 (UniProt A2RUC4) | inactive: -0.045 | inactive: -0.136 | inactive: 0.12 | inactive: 0.052 | inactive: 0.042 |  | inactive: 0.035 | inactive: -0.021 | inactive: 0.078 | inactive: 0.071
22 | TTC17 (UniProt Q96AE7) | inactive: -0.055 | inactive: -0.041 | inactive: -0.004 | inactive: 0.031 | inactive: -0.018 | inactive: 0.034 | inactive: -0.068 | inactive: 0.002 | inactive: 0.054 | inactive: -0.034
23 | TSPYL1 (UniProt Q9H0U9) | inactive: -0.158 | inactive: -0.141 |  | inactive: 0.032 | inactive: -0.068 |  |  | inactive: 0.079 |  | 
24 | TXNRD2 (UniProt Q9NNW7) | inactive: 0.057 | inactive: 0.042 | inactive: -0.053 | inactive: -0.003 | inactive: 0.002 | inactive: 0.079 | inactive: 0.016 | inactive: 0.025 | inactive: -0.031 | inactive: 0.068
25 | TXNDC17 (UniProt Q9BRA2) | inactive: -0.049 | inactive: 0.044 | inactive: 0.112 | inactive: -0.004 | inactive: -0.033 | inactive: -0.035 | inactive: 0 | inactive: -0.032 | inactive: -0.046 | inactive: 0.037
26 | TXNDC11 (UniProt Q6PKC3) | inactive: -0.058 | inactive: 0.003 | inactive: -0.06 | inactive: 0.019 | inactive: -0.037 | inactive: -0.005 | inactive: 0.003 | inactive: -0.001 | inactive: -0.026 | inactive: -0.042
27 | UBE2J2 isoform 3 (UniProt Q8N2K1) | inactive: -0.096 | inactive: 0.154 | inactive: 0.026 | inactive: 0.07 | inactive: -0.057 | inactive: 0.126 |  | inactive: -0.039 | inactive: -0.145 | inactive: -0.015
28 | UBE2M (UniProt P61081) | inactive: 0.01 | inactive: 0.019 | inactive: 0.099 | inactive: -0.026 | inactive: 0.039 | inactive: 0.01 | inactive: 0.015 | inactive: 0.016 | inactive: -0.005 | inactive: 0.033
29 | TTF2 (UniProt Q9UNY4) | inactive: 0.184 | inactive: 0.063 | inactive: -0.238 | inactive: 0.144 | inactive: 0.18 |  | inactive: -0.055 | inactive: -0.036 | inactive: -0.14 | inactive: -0.232
30 | TTC7B isoform 2 (UniProt Q86TV6) | inactive: 0.015 | inactive: -0.034 |  | inactive: -0.037 | inactive: 0.076 | inactive: 0.117 | inactive: -0.028 | inactive: 0.04 | inactive: -0.014 | inactive: 0.013
31 | TXNL4A (UniProt P83876) | inactive: -0.03 | inactive: 0.007 | inactive: -0.003 | inactive: 0.037 | inactive: 0.073 | inactive: 0.023 | inactive: -0.037 | inactive: 0.012 | inactive: 0.041 | inactive: 0.056
32 | UBE2L6 (UniProt O14933) | inactive: 0.06 | inactive: -0.022 |  | inactive: 0.054 | inactive: 0.078 |  |  | inactive: -0.021 |  | 
33 | U2AF1L5 (UniProt P0DN76) | active: 1.29 | inactive: 0.031 |  | inactive: 0.022 | inactive: -0.159 | inactive: 0.096 |  | inactive: -0.005 | inactive: 0.153 | inactive: -0.207
